Test system: MDCK cells (MDCK wild type)
Test: In vitro permeability experiment, MDCK wild type
Details: 5 μM, 90 min
Procedure: In vitro passive permeability or the ability to serve as a P-glycoprotein (P-gp) transport substrate was tested using MDCK cells (MDCK wild type) or MDCK cells stably transduced with MDR1 (MDCK-MDR1), respectively. The permeability experiment was performed in duplicate in a transwell system at a single concentration (5 μM). The cells were incubated for 90 min. Apical-to-basolateral (A to B, A-B) transport and basolateral-to-apical (B to A, B-A) transport of the corresponding compound were determined, and the permeation rate (apparent permeability) (Papp×10^−6 cm/sec) and efflux ratio (Papp (B-A)/Papp (A-B)) of the test compound were calculated.

## CC(C)NCC(O)COc1ccc(CC(N)=O)cc1 (stereo not drawn) [Atenolol]
A-B
  Papp Mean: 0.51 10^−6 cm · s^−1
  Papp Sample - 01: 0.52 10^−6 cm · s^−1
  Papp Sample - 02: 0.49 10^−6 cm · s^−1
B-A
  Papp Mean: 1.01 10^−6 cm · s^−1
  Papp Sample - 01: 1.02 10^−6 cm · s^−1
  Papp Sample - 02: 1.01 10^−6 cm · s^−1

Reference: patent US12122774B2, “Compounds as MYT1 inhibitors” (WIGEN BIOMEDICINE TECHNOLOGY (SHANGHAI) CO., LTD., priority 2022, dated 2024)
